Measured values: patent US20250041270A1, “SMALL MOLECULE DRUGS THAT REDUCE PROTEIN AGGREGATION” (BIOVENTURES, LLC, priority 2021, published 2025)

Tested on: SH-SY5Y-APPSw cells
Assay: Proteomic identification of proteins in sarkosyl-insoluble aggregates
Format: cell-based, human
Experimental: Isolation of aggregate proteins. Cultured human cells were collected, flash frozen in liquid nitrogen, and homogenized at 0° C. in the presence of buffer containing nonionic detergent (1% v/v NP40, 20-mM Hepes pH 7.4, 300-mM NaCl, 2-mM MgCl2, and protease/phosphatase inhibitors [CalBiochem]). Lysates were centrifuged (5 min, 3000 rpm at 4° C.) to remove debris. After removal of cytosolic proteins (soluble in 1% NP40 nonionic detergent) by centrifugation (18 min, 13,000×g at 4° C.), protein pellets were brought to pH 7.4 with 0.1-M HEPES buffer containing 1% v/v sarkosyl(sodium lauryl sarcosinate) and 5-mM EDTA, and centrifuged 30 min at 100,000×g. Pellet proteins (the sarkosyl-insoluble fraction) were resuspended in Laemmli loading buffer (containing 50-mM dithiothreitol and 2% v/v SDS, sodium dodecyl sulfate), heated 5 min at 95° C. to dissolve proteins soluble in this buffer, and separated by electrophoresis on 4-20% polyacrylamide gradient gels containing 1% v/v SDS. Gels were stained with SYPRO Ruby (ThermoFisher) or Coomassie Blue to visualize protein. Gel lanes were robotically cut into 1-mm slices, and digested thoroughly with trypsin. Proteins in each slice were identified by mass spectrometry as described previously (Ayyadevara et al., 2015; Ayyadevara et al., 2016a; Ayyadevara et al., 2016b; Ayyadevara et al., 2016c; Ayyadevara et al., 2016d; Balasubramaniam et al., 2018).

O=C(NC[C@H]1CC[C@H](CO)CC1)c1ccc(N2CCCC2)c(Cl)c1 [MSR1, 3-chloro-N-{[trans-4-(hydroxymethyl)cyclo-hexyl]methyl}-4-pyrrolidin-1-ylbenzamide]
number of aggregate proteins not detected after both GFAP siRNA and MSR1 (proteomic overlap) (48 hr, 1-μM MSR1): 251 proteins | correlation R of log2(fold change) of aggregate protein abundance, MSR1 vs GFAP siRNA (linear regression, P≤3E-280): 0.77 | concordance of proteins completely eliminated from aggregates with those eliminated by GFAP siRNA (proteins >7 spectral counts in control, 0 hits after treatment): 87%
